Source: patent US12364797B2, “Apparatus for removing chemotherapy compounds from blood” (Delcath Systems, Inc., priority 2011, dated 2025)
Counter-ions that a name gives are not always drawn.

Assays:
[1] = In vitro extraction efficiency, extracorporeal circuit with bovine blood
[2] = In vivo extraction efficiency, porcine model of chemosaturation with percutaneous hepatic perfusion (CS-PHP); design: species or system Yorkshire Cross pigs; conditions: 60 min hemofiltration, target flow 500 mL/min, hydrogel ratio 25

## CC[C@@]1(O)C(=O)OCc2c1cc1n(c2=O)Cc2cc3c(CN(C)C)c(O)ccc3nc2-1 [Topotecan, topotecan]
[1]; doses 6.25, 12.5, 18.75 mg, flow rate per cartridge 250 ml/min, hydrogel ratio 25:1, sample size 3
  Efficiency (%) Average: 90.3%
[1]; doses 6.25, 12.5, 18.75 mg, flow rate per cartridge 500 ml/min, hydrogel ratio 25:1, sample size 3
  Efficiency (%) Average: 84.3%

## COc1cccc2c1C(=O)c1c(O)c3c(c(O)c1C2=O)C[C@@](O)(C(=O)CO)C[C@@H]3O[C@H]1C[C@H](N)[C@H](O)[C@H](C)O1 [Doxorubicin HCl, doxorubicin hydrochloride]
[2]; Study 4, pigs n=5, dose 152 mg, phenylephrine, bicarbonate, dextrose saline
  Chemotherapeutic Removal Efficiency (%) Average ± Standard Deviation: 71.4 ± 5.1%
[1]; dose 90 mg, flow rate per cartridge 250 ml/min, hydrogel ratio 25:1, sample size 2
  Efficiency (%) Average: 96.4%
[1]; dose 150 mg, flow rate per cartridge 400 ml/min, hydrogel ratio 25:1, sample size 2
  Efficiency (%) Average: 96.9%
[1]; dose 150 mg, flow rate per cartridge 400 ml/min, hydrogel ratio 25:1, sample size 5
  Efficiency (%) Average: 95.4%

## NC(Cc1ccc(N(CCCl)CCCl)cc1)C(=O)O (centres unmarked) [Melphalan HCl, 2-amino-3-[4-[bis(2-chloroethyl)amino]phenyl]-propanoic acid]
[2]; Study 1, pigs n=6, dose 220 mg, no phenylephrine, no bicarbonate
  Chemotherapeutic Removal Efficiency (%) Average ± Standard Deviation: 98.5 ± 0.5%
[2]; Study 2, pigs n=5, dose 209 mg, phenylephrine and bicarbonate
  Chemotherapeutic Removal Efficiency (%) Average ± Standard Deviation: 96.3 ± 0.3%
[2]; Study 3, pigs n=10, dose 220 mg, phenylephrine and bicarbonate
  Chemotherapeutic Removal Efficiency (%) Average ± Standard Deviation: 97.5 ± 0.5%
[1]; dose 110 mg, flow rate per cartridge 250 ml/min, hydrogel ratio 25:1, sample size 6
  Efficiency (%) Average: 99.1%
[1]; dose 110 mg, flow rate per cartridge 500 ml/min, hydrogel ratio 25:1, sample size 36
  Efficiency (%) Average: 97.2%
